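RD rhabdomyosarcoma cells exposed to compounds for 48 hours, with viable metabolically active cells measured by a luminescence signal in a confirmation screen. Each compound ran as an 11-point dilution series; the listed activity columns span about 0.000009 to 367 µM. Potency is the fitted concentration giving half of the maximal effect on viability; a lower value means a more potent compound. Calls come from the whole curve; inconclusive marks weak, poorly fitted, top-dose-only or opposite-direction effects, scored 1 to 39.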

Values are in µM. All entries here are filed as inconclusive. Only part of the assay is shown, chiefly results filed as inconclusive. A potency from a partial, single-point or poor curve is only a rough figure. Some entries filed as inconclusive have a full curve. The first word of each remark tells which way the curve ran; it can be opposite to the aim of the assay. Activity scores are not listed here.

{"compound": "CN1N=C(N)c2cn([C@@H]3O[C@H](COP(=O)(O)O)[C@@H](O)[C@@H]3O)c3ncnc1c23", "Potency (µM)": "6.566", "curve as filed": "cytotoxic, partial curve, poor fit"}
{"compound": "CC[C@@]1(O)C(=O)OCc2c1cc1n(c2=O)Cc2cc3cc(O)ccc3nc2-1", "Potency (µM)": "0.0329", "curve as filed": "cytotoxic, full curve, poor fit"}
{"compound": "CC(C)C[C@H](NC(=O)[C@H](CCc1ccccc1)NC(=O)CN1CCOCC1)C(=O)N[C@@H](Cc1ccccc1)C(=O)N[C@@H](CC(C)C)C(=O)[C@@]1(C)CO1", "Potency (µM)": "0.0052", "curve as filed": "cytotoxic, full curve, poor fit"}
{"compound": "Cc1cc(C2CCCCC2)n(O)c(=O)c1", "Potency (µM)": "2.933", "curve as filed": "cytotoxic, full curve"}
{"compound": "O=C(NC1CC1)c1cccc(-c2ccc3c(NC(=O)C4CC4)n[nH]c3c2)c1", "Potency (µM)": "9.275", "curve as filed": "cytotoxic, full curve"}
{"compound": "CNC1CCC(N(Cc2cccc(-c3ccncc3)c2)C(=O)c2sc3c(F)ccc(F)c3c2Cl)CC1", "stereo": "stereo unspecified", "Potency (µM)": "29.33", "curve as filed": "cytotoxic, single point"}
{"compound": "Nc1ccn([C@@H]2O[C@H](CO)[C@@H](O)[C@H]2O)c(=O)n1", "Potency (µM)": "0.0013", "curve as filed": "rising, full curve"}
{"compound": "Cc1cnc(Nc2ccc(CN3CCOCC3)cc2)nc1Nc1cccc(S(=O)(=O)NC(C)(C)C)c1", "Potency (µM)": "16.49", "curve as filed": "cytotoxic, partial curve, poor fit"}
{"compound": "Cc1cc(C(=O)N2CCN(c3cccc(Cl)c3)CC2)n(-c2ccccc2)n1", "Potency (µM)": "2.933", "curve as filed": "cytotoxic, full curve, poor fit"}
{"compound": "O=C(Nc1cc(C(F)(F)F)cc(C(F)(F)F)c1)c1cc(Cl)ccc1O", "Potency (µM)": "0.0046", "curve as filed": "cytotoxic, full curve, poor fit"}
{"compound": "CN(C)CCCN=c1c2ccccc2n(C)c2[nH]c(=O)n(C)c(=O)c12", "Potency (µM)": "32.91", "curve as filed": "cytotoxic, single point"}
{"compound": "NC(=O)c1cccc2cn(-c3ccc([C@@H]4CCCNC4)cc3)nc12", "Potency (µM)": "23.3", "curve as filed": "cytotoxic, partial curve, poor fit"}
{"compound": "COC(=O)C1C2CC3c4[nH]c5cc(OC)ccc5c4CCN3CC2CC(OC(=O)c2cc(OC)c(OC)c(OC)c2)C1OC", "stereo": "stereo unspecified", "Potency (µM)": "1.168", "curve as filed": "rising, partial curve, poor fit"}
{"compound": "CCc1c2c(nc3ccc(O)cc13)-c1cc3c(c(=O)n1C2)COC(=O)[C@]3(O)CC", "Potency (µM)": "2.076", "curve as filed": "cytotoxic, partial curve, poor fit"}
{"compound": "N[C@@H](Cc1ccc(N(CCCl)CCCl)cc1)C(=O)O", "Potency (µM)": "26.14", "curve as filed": "cytotoxic, single point"}
{"compound": "O=C(Cc1ccc(-c2ccc(OCCN3CCOCC3)cc2)cn1)NCc1ccccc1", "Potency (µM)": "0.147", "curve as filed": "cytotoxic, full curve"}
{"compound": "C=C1C(=CC=C2CCC[C@]3(C)[C@@H]([C@H](C)C=C[C@H](C)C(C)C)CC[C@@H]23)C[C@@H](O)C[C@@H]1O", "Potency (µM)": "23.3", "curve as filed": "cytotoxic, single point"}
{"compound": "O=C(C=Cc1ccc(CN(CCO)CCc2c[nH]c3ccccc23)cc1)NO", "Potency (µM)": "0.2614", "curve as filed": "cytotoxic, full curve, poor fit"}
{"compound": "CO[C@@H]1[C@H](N(C)C(=O)c2ccccc2)C[C@H]2O[C@]1(C)n1c3ccccc3c3c4c(c5c6ccccc6n2c5c31)C(=O)NC4", "Potency (µM)": "3.291", "curve as filed": "cytotoxic, full curve"}
{"compound": "Cc1ccc2nc(NC(=O)CSc3nc4c(c(=O)n3-c3ccccc3)SCC4)sc2c1", "Potency (µM)": "32.91", "curve as filed": "cytotoxic, single point"}
{"compound": "O=C(NCc1ccncc1)C12C[C@H]3C[C@@H](C1)CC(c1ccc(Cl)cc1)(C3)C2", "Potency (µM)": "29.33", "curve as filed": "cytotoxic, single point"}
{"compound": "Cc1cc(Nc2ncnc3ccc(-c4ccc(CNCCS(C)(=O)=O)o4)cc23)ccc1Oc1ccn2ncnc2c1", "Potency (µM)": "0.0131", "curve as filed": "cytotoxic, full curve, poor fit"}
{"compound": "OCCCNc1cc(-c2ccnc(Nc3cccc(Cl)c3)n2)ccn1", "Potency (µM)": "0.3692", "curve as filed": "cytotoxic, full curve, poor fit"}
{"compound": "CCCC(=O)O[C@]1(C(=O)COC(=O)CC)CC[C@H]2[C@@H]3CCC4=CC(=O)CC[C@]4(C)[C@H]3[C@@H](O)C[C@@]21C", "Potency (µM)": "1.021", "curve as filed": "cytotoxic, full curve"}
{"compound": "CN/C(=C\\[N+](=O)[O-])NCCSCc1ccc(CN(C)C)o1", "Potency (µM)": "0.0033", "curve as filed": "rising, full curve"}

2 of the entries, repeated:

{"compound": "CN1N=C(N)c2cn([C@@H]3O[C@H](COP(=O)(O)O)[C@@H](O)[C@@H]3O)c3ncnc1c23", "Potency (µM)": "6.566", "curve as filed": "cytotoxic, partial curve, poor fit"}
{"compound": "CO[C@@H]1[C@H](N(C)C(=O)c2ccccc2)C[C@H]2O[C@]1(C)n1c3ccccc3c3c4c(c5c6ccccc6n2c5c31)C(=O)NC4", "Potency (µM)": "3.291", "curve as filed": "cytotoxic, full curve"}

From PubChem BioAssay record AID1347124 (NCATS, 2019).